No constants are given. Whether binding was seen depends on the method and setting. Some binding calls cover weakened binding; strength is not graded here.
Key:
[1] = molecular target: human MAdCAM expressed on cells (human) (UniProt Q13477); experiment: cell binding
[2] = molecular target: recombinant human MAdCAM protein (human) (UniProt Q13477); experiment: Octet
[3] = molecular target: recombinant mouse MAdCAM-1 (mouse) (UniProt Q61826); experiment: Octet
[4] = molecular target: mouse MAdCAM expressed on cells (mouse) (UniProt Q61826); experiment: cell binding

Sequences of proteins named here, by UniProt entry; tags and fusion partners are left off. A change or cut given only in a name is not applied to a line headed by its entry. Residues count along the entry.
UniProt Q13477: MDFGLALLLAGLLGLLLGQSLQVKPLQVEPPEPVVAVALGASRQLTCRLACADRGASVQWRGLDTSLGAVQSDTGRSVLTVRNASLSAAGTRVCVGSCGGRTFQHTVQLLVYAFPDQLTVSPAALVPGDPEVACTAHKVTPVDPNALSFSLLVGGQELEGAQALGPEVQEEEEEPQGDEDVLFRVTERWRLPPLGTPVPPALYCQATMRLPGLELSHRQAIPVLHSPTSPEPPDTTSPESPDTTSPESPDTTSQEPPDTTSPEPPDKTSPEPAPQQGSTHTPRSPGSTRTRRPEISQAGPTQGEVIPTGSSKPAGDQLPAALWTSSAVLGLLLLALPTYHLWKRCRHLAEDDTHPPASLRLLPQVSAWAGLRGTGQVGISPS
human MAdCAM expressed on cells: residues 19-382 of Q13477
recombinant human MAdCAM protein: residues 19-317 of Q13477
UniProt Q61826: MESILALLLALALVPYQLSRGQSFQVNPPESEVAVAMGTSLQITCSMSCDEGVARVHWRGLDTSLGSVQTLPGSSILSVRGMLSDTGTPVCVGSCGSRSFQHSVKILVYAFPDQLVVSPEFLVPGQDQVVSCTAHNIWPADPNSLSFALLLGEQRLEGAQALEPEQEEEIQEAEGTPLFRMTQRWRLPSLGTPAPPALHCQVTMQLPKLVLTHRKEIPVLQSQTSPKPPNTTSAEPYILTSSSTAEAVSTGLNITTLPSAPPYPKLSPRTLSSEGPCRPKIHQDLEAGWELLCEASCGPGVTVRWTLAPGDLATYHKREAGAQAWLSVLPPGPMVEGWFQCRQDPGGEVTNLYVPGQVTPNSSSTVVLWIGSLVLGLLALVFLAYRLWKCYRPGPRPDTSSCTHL
mouse MAdCAM expressed on cells: residues 22-405 of Q61826
recombinant mouse MAdCAM-1: residues 22-365 of Q61826

| binding [1] | binding [2] | binding [3] | binding [4] | Binder |
| --- | --- | --- | --- | --- |
| binds |  |  |  | MAdCAM Antibody Table 1 Clone 25 (scFv) scFv: QVQLVQSGAEVKKPGASVKVSCKASGYTLTTWYMYWVRQAPGQGLEWMGWINPNRGATNYAQKFQGRVTMTRDTSTSTVYMELSSLRSEDTAVYYCAKGDLWGAMDVWGQGTLVTVSSGGGGSGGGGSGGGGSGGGGSDIQMTQSPSSLSASVGDRVTITCRASDNIGSWLAWYQQKPGKAPKLLIYAASSLQSGVPSRFSGSGSGTDFTLTISSLQPEDFATYYCQQGYSTPPTFGQGTKVEIK |
| binds |  |  |  | MAdCAM Antibody Table 1 Clone 30 (scFv) scFv: QVQLVQSGAEVKKPGASVKVSCKASGYTLTTWYMYWVRQAPGQGLEWMGWINPNRGATNYAQKFQGRVTMTRDTSTSTVYMELSSLRSEDTAVYYCAKGDLWGAMDVWGQGTLVTVSSGGGGSGGGGSGGGGSGGGGSDIQMTQSPSSLSASVGDRVTITCRASDNIGSWLAWYQQKPGKAPKLLIYAASSLQSGVPSRFSGSGSGTDFTLTISSLQPEDFATYYCQQGYSTPPTFGQGTKVEIK |
| binds |  |  |  | MAdCAM Antibody Table 2 Clone 32 (antibody, human IgG1, V domains shown) VH: QVQLVQSGAEVKKPGASVKVSCKASGYTLTTWYMYWVRQAPGQGLEWMGWINPNRGATNYAQKFQGRVTMTRDTSTSTVYMELSSLRSEDTAVYYCAKGDLWGAMDVWGQGTLVTVSS VL: DIQMTQSPSSLSASVGDRVTITCRASDNIGSWLAWYQQKPGKAPKLLIYAASSLQSGVPSRFSGSGSGTDFTLTISSLQPEDFATYYCQQGYSTPPTFGQGTKVEIK |
|  | binds | binds |  | MAdCAM Antibody Table 1 Clone 4 (scFv) scFv: QVQLVQSGAEVKKPGASVKVSCKASGGTFSSYAISWVRQAPGQGLEWMGSINPSGDTTSYAQKFQGRVTMTRDTSTSTVYMELSSLRSEDTAVYYCAKDKAQWLVGYFDYWGQGTLVTVSSGGGGSGGGGSGGGGSGGGGSDIQMTQSPSSLSASVGDRVTITCQASQDISNSLNWYQQKPGKAPKLLIYAASSLQSGVPSRFSGSGSGTDFTLTISSLQPEDFATYYCQQSYSSVITFGQGTKVEIK |
| binds |  |  |  | MAdCAM Antibody Table 1 Clone 8 (scFv) scFv: EVQLLESGGGLVQPGGSLRLSCAASGFMFGDYAMHWVRQAPGKGLEWVSAISGSGGSTYYADSVKGRFTISRDNSKNTLYLQMNSLRAEDTAVYYCAKDLVVAGIWYFDLWGRGTLVTVSSGGGGSGGGGSGGGGSGGGGSDIQMTQSPSSLSASVGDRVTITCRASQGISNNLNWYQQKPGKAPKLLIYDASSLESGVPSRFSGSGSGTDFTLTISSLQPEDFATYYCQQTHSFPSTFGQGTKLEIK |
| binds | binds | binds | binds | MAdCAM Antibody Table 2 Clone 4 (antibody, human IgG1, V domains shown) VH: QVQLVQSGAEVKKPGASVKVSCKASGGTFSSYAISWVRQAPGQGLEWMGSINPSGDTTSYAQKFQGRVTMTRDTSTSTVYMELSSLRSEDTAVYYCAKDKAQWLVGYFDYWGQGTLVTVSS VL: DIQMTQSPSSLSASVGDRVTITCQASQDISNSLNWYQQKPGKAPKLLIYAASSLQSGVPSRFSGSGSGTDFTLTISSLQPEDFATYYCQQSYSSVITFGQGTKVEIK |
|  | binds | binds |  | MAdCAM Antibody Table 2 Clone 75 (antibody, human IgG1, V domains shown) VH: EVQLLESGGGLVQPGGSLRLSCAASGFTFSDFWMHWVRQAPGKGLEWISYISGDSGYTNYADSVKGRFTISRDNSKNTLYLQMNSLRAEDTAVYYCARDRPYYYYMDVWGKGTTVTVSS VL: DIQMTQSPSSLSASVGDRVTITCRASQSVSRSLAWYQQKPGKAPKLLIYAASSLQSGVPSRFSGSGSGTDFTLTISSLQPEDFATYYCQQYKSYPVTFGQGTKVEIK |
|  | binds | binds |  | MAdCAM Antibody Table 1 Clone 7 (scFv) scFv: QVQLVQSGAEVKKPGASVKVSCKASGYTFTGYHIHWVRQAPGQGLEWMGIINPSGGSTIYAQKFQGRVTMTRDTSTSTVYMELSSLRSEDTAVYYCAKDWSSWYLGPFDYWGQGTLVTVSSGGGGSGGGGSGGGGSGGGGSDIQMTQSPSSLSASVGDRVTITCRASQNISSSLNWYQQKPGKAPKLLIYAASSLQSGVPSRFSGSGSGTDFTLTISSLQPEDFATYYCQQSYTTPYTFGQGTKVEIK |
|  | binds | binds |  | MAdCAM Antibody Table 1 Clone 5 (scFv) scFv: EVQLLESGGGLVQPGGSLRLSCAASGFTFSSYWMHWVRQAPGKGLEWVSSISPGGSNIDYADSVKGRFTISRDNSKNTLYLQMNSLRAEDTAVYYCAREVQLSHYDYWGQGTLVTVSSGGGGSGGGGSGGGGSGGGGSDIQMTQSPSSLSASVGDRVTITCRASQGISNSLAWYQQKPGKAPKLLIYGASSLQSGVPSRFSGSGSGTDFTLTISSLQPEDFATYYCQQANSFPFTFGQGTKVEIK |
| binds |  |  | binds | MAdCAM Antibody Table 2 Clone 2 (antibody, human IgG1, V domains shown) VH: QVQLVQSGAEVKKPGASVKVSCKASGYPFIGYYLHWVRQAPGQGLEWMGIINPSGGSTSYAQKFQGRVTMTRDTSTSTVYMELSSLRSEDTAVYYCAREGRLSYGMDAWGQGTLVTVSS VL: DIQMTQSPSSLSASVGDRVTITCRASQSISSYLAWYQQKPGKAPKLLIYGASTLESGVPSRFSGSGSGTDFTLTISSLQPEDFATYYCQQTWGPPFTFGQGTKLEIK |
| binds |  |  |  | MAdCAM Antibody Table 2 Clone 35 (antibody, human IgG1, V domains shown) VH: QVQLVQSGAEVKKPGASVKVSCKASGYTFTGYYIHWVRQAPGQGLEWMGWMNPNSGNTGYAQKFQGRVTMTRDTSTSTVYMELSSLRSEDTAVYYCARDPGFLGYSSGGSSYDGWFDPWGQGTLVTVSS VL: DIQMTQSPSSLSASVGDRVTITCRASQSISSYLHWYQQKPGKAPKLLIYAASSLQSGVPSRFSGSGSGTDFTLTISSLQPEDFATYYCQQSYTAPYTFGQGTKLEIK |
| binds |  |  | binds | MAdCAM Antibody Table 2 Clone 3 (antibody, human IgG1, V domains shown) VH: QVQLVQSGAEVKKPGASVKVSCKASGYPFIGQYLHWVRQAPGQGLEWMGIINPSGGSTSYAQKFQGRVTMTRDTSTSTVYMELSSLRSEDTAVYYCAREGRLSYGMDAWGQGTLVTVSS VL: DIQMTQSPSSLSASVGDRVTITCRASQSISSYLAWYQQKPGKAPKLLIYGASTLESGVPSRFSGSGSGTDFTLTISSLQPEDFATYYCQQTWGPPFTFGQGTKLEIK |
|  | binds | binds |  | MAdCAM Antibody Table 2 Clone 11 (antibody, human IgG1, V domains shown) VH: EVQLLESGGGLVQPGGSLRLSCAASGFTFSDYYMNWVRQAPGKGLEWVSVIGESGGSTYYADSVKGRFTISRDNSKNTLYLQMNSLRAEDTAVYYCAADPVSRWPKHGGGDYWGQGTLVTVSS VL: DIQMTQSPSSLSASVGDRVTITCRASQGISSSLAWYQQKPGKAPKLLIYAASTLQSGVPSRFSGSGSGTDFTLTISSLQPEDFATYYCQQSYSTPWTFGQGTKVEIK |
| binds | binds | binds | binds | MAdCAM Antibody Table 2 Clone 5 (antibody, human IgG1, V domains shown) VH: EVQLLESGGGLVQPGGSLRLSCAASGFTFSSYWMHWVRQAPGKGLEWVSSISPGGSNIDYADSVKGRFTISRDNSKNTLYLQMNSLRAEDTAVYYCAREVQLSHYDYWGQGTLVTVSS VL: DIQMTQSPSSLSASVGDRVTITCRASQGISNSLAWYQQKPGKAPKLLIYGASSLQSGVPSRFSGSGSGTDFTLTISSLQPEDFATYYCQQANSFPFTFGQGTKVEIK |
| binds | binds | binds | binds | MAdCAM Antibody Table 1 Clone 9 (scFv) scFv: EVQLLESGGGLVQPGGSLRLSCAASGFTFSDYYMNWVRQAPGKGLEWVSVIGESGGSTYYADSVKGRFTISRDNSKNTLYLQMNSLRAEDTAVYYCAADPVSRWPKHGGGDYWGQGTLVTVSSGGGGSGGGGSGGGGSGGGGSDIQMTQSPSSLSASVGDRVTITCRASQGISSSLAWYQQKPGKAPKLLIYAASTLQSGVPSRFSGSGSGTDFTLTISSLQPEDFATYYCQQSYSTPWTFGQGTKVEIK |
|  | binds | binds |  | MAdCAM Antibody Table 2 Clone 79 (antibody, human IgG1, V domains shown) VH: EVQLLESGGGLVKPGGSLRLSCAASGFTFDDYAMHWVRQAPGKGLEWVASITSSSAFIDYAASVKGRFTISRDDSKNTLYLQMNSLKTEDTAVYYCARERVDWNSYFDLWGRGTLVTVSS VL: EIVMTQSPATLSVSPGERATLSCRASQGISNSYLAWYQQKPGQAPRLLIYGASTRATGIPARFSGSGSGTEFTLTISSLQSEDFAVYYCQQYYTYPPTFGPGTKVDIK |
|  | binds | binds |  | MAdCAM Antibody Table 1 Clone 2 (scFv) scFv: QVQLVQSGAEVKKPGASVKVSCKASGYPFIGYYLHWVRQAPGQGLEWMGIINPSGGSTSYAQKFQGRVTMTRDTSTSTVYMELSSLRSEDTAVYYCAREGRLSYGMDAWGQGTLVTVSSGGGGSGGGGSGGGGSGGGGSDIQMTQSPSSLSASVGDRVTITCRASQSISSYLAWYQQKPGKAPKLLIYGASTLESGVPSRFSGSGSGTDFTLTISSLQPEDFATYYCQQTWGPPFTFGQGTKLEIK |

— patent US20210206856A1
